Values from PubChem BioAssay AID686943 (Drosophila RNAi Screening Center, 2013)

- Assay: 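Fly genes whose loss alters ERK activation after insulin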 (primary screen)
- Cells: Drosophila S2R+ haemocyte-like cells expressing YFP-tagged ERK (Rolled)
- Reagents: long dsRNA against Drosophila genes
- Challenge: insulin stimulation versus unstimulated cells; dose and duration not given
- Detection: 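Per-plate z-scores of phospho-ERK immunostaining normalised to YFP-tagged ERK, measured with and without insulin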
- Scale: replicate 1, z-score of dpERK with insulin and replicate 2, z-score of dpERK with insulin: higher = more active ERK per ERK-YFP after insulin
The deposit covers about 23,000 reagents; below is a random part of those with a known target gene and a result. 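Extra replicates exist only for a retested subset of genes; insulin dose and duration not given; both raised and lowered dpERK matter.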 The numbers tell different reagents against one gene apart. Names joined by + are all predicted targets of the reagent. Further read-outs or replicates are left out here. Reagent sequences are not shown. The record does not give: the amount of reagent, the time to read-out.

For Spn43Aa, the values are replicate 1, z-score of dpERK with insulin -0.09; replicate 2, z-score of dpERK with insulin 0.05.
Rpe scored replicate 1, z-score of dpERK with insulin 0.36; replicate 2, z-score of dpERK with insulin -0.77.
CG13856 showed replicate 1, z-score of dpERK with insulin 0.15; replicate 2, z-score of dpERK with insulin -0.54.
Rad1 + Sws1 scored replicate 1, z-score of dpERK with insulin -0.43; replicate 2, z-score of dpERK with insulin 0.05.
For Osi15 the deposit lists replicate 1, z-score of dpERK with insulin 0.62; replicate 2, z-score of dpERK with insulin 0.86.
Depletion of Prx3 gave: replicate 1, z-score of dpERK with insulin -1.89; replicate 2, z-score of dpERK with insulin 0.1.
Against ssp6 #1, the entry reads replicate 1, z-score of dpERK with insulin 0.13; replicate 2, z-score of dpERK with insulin 0.05.
Knock-down of ssp6 #2 resulted in: replicate 1, z-score of dpERK with insulin -3.51; replicate 2, z-score of dpERK with insulin -3.51.
Depletion of P32 came out at: replicate 1, z-score of dpERK with insulin 0.25; replicate 2, z-score of dpERK with insulin 0.14.
Against p38a the deposit lists replicate 1, z-score of dpERK with insulin 0.35; replicate 2, z-score of dpERK with insulin 0.01.
Depletion of Orco gave: replicate 1, z-score of dpERK with insulin 0.38; replicate 2, z-score of dpERK with insulin -0.24.

No new results follow: 2 of the entries above.
CG13856 | replicate 1, z-score of dpERK with insulin = 0.15; replicate 2, z-score of dpERK with insulin = -0.54
Rad1 + Sws1 | replicate 1, z-score of dpERK with insulin = -0.43; replicate 2, z-score of dpERK with insulin = 0.05

The results go on.
CG33108 scored replicate 1, z-score of dpERK with insulin -1.47; replicate 2, z-score of dpERK with insulin 0.1.
For ppk20, the entry reads replicate 1, z-score of dpERK with insulin 0.27; replicate 2, z-score of dpERK with insulin -0.15.
CG13054 gave replicate 1, z-score of dpERK with insulin -1.16; replicate 2, z-score of dpERK with insulin -0.22.
After knock-down of Cyp6g1 the results were replicate 1, z-score of dpERK with insulin -0.38; replicate 2, z-score of dpERK with insulin -0.15.
Gr59d showed replicate 1, z-score of dpERK with insulin 0; replicate 2, z-score of dpERK with insulin 0.27.
After knock-down of ohgt, the screen gave replicate 1, z-score of dpERK with insulin -0.71; replicate 2, z-score of dpERK with insulin -0.16.
Against Rab32 #1, the values are replicate 1, z-score of dpERK with insulin 0.02; replicate 2, z-score of dpERK with insulin 0.26.
Rab32 #2 scored replicate 1, z-score of dpERK with insulin -0.49; replicate 2, z-score of dpERK with insulin 0.64.
Against ksr, the entry reads replicate 1, z-score of dpERK with insulin -8.19; replicate 2, z-score of dpERK with insulin -5.9.
foxo #1 showed replicate 1, z-score of dpERK with insulin -5.51; replicate 2, z-score of dpERK with insulin -1.97.
Depletion of foxo #2 resulted in: replicate 1, z-score of dpERK with insulin -0.47; replicate 2, z-score of dpERK with insulin 0.58.
